The series is described as follows: Concentrations of brassinosteroids in Arabidopsis strains by HPLC and GC-MS. The following applies: ground part of plants at rosette formation; for concentration of brassinosteroid, rot3-1: rot3-1 (suppressed function of ROT3); for concentration of brassinosteroid, rot3-5: rot3-5 (suppressed function of ROT3); for concentration of brassinosteroid, Ws-2: wild strain Ws-2, freeze-dried. The protocol:
The concentrations of brassinosteroids were determined in wild strains (Ws-2), the strain of reference example 1 (rot3-1 and rot3-5, suppressed function of ROT3) and the strain of reference example 3 (rot3/CYP90D1, suppressed function of ROT3 and CYP90D1) of Arabidoposis. The concentration was determined by harvesting the ground part of the plants at the time of rosette formation by reaping, by freezing and drying, and by detecting using HPLC and GC-MS.

Data on 7 compounds can be found in patent publication US20050246797A1, “Gene participating in the synthesis of brassinosteroid” (priority 2002, published 2005).

As to `CC(C)[C@H](C)[C@@H](O)[C@H](O)[C@@H](C)[C@H]1CC[C@H]2[C@@H]3CC[C@H]4C[C@H](O)CC[C@]4(C)[C@H]3CC[C@]12C` [3-Deoxotyphasterol], the “concentration of brassinosteroid, rot3-1” value is 3.49 ng/g; the “concentration of brassinosteroid, rot3-5” value is given as 4.30 ng/g; the “concentration of brassinosteroid, Ws-2” value worked out at 2.30 ng/g.

For `CC(C)[C@H](C)[C@@H](O)[C@H](O)[C@@H](C)[C@H]1CC[C@H]2[C@@H]3CC[C@H]4C[C@H](O)[C@H](O)C[C@]4(C)[C@H]3CC[C@]12C` [6-Deoxocastasterone], the “concentration of brassinosteroid, rot3-1” value is given as 1.88 ng/g; the “concentration of brassinosteroid, rot3-5” value turned out to be 4.00 ng/g; the “concentration of brassinosteroid, Ws-2” value is recorded as 2.60 ng/g.

Take `CC(C)[C@H](C)[C@@H](O)[C@H](O)[C@@H](C)[C@H]1CC[C@H]2[C@@H]3CC[C@H]4C[C@@H](O)CC[C@]4(C)[C@H]3CC[C@]12C` [6-Deoxoteasterone]: the “concentration of brassinosteroid, rot3-1” value worked out at 0.19 ng/g; the “concentration of brassinosteroid, rot3-5” value turned out to be 0.11 ng/g; the “concentration of brassinosteroid, Ws-2” value was determined as 0.05 ng/g.

Regarding `CC(C)[C@H](C)[C@@H](O)[C@H](O)[C@@H](C)C1CCC2C3OC(=O)[C@H]4C[C@H](O)[C@H](O)C[C@]4(C)C3CC[C@@]21C` (stereo partly drawn) [Brassinolide], the “concentration of brassinosteroid, rot3-1” value is 0.04 ng/g; the “concentration of brassinosteroid, rot3-5” value came out at 0.06 ng/g; the “concentration of brassinosteroid, Ws-2” value amounted to 0.20 ng/g.

As for `CC(C)[C@H](C)[C@@H](O)[C@H](O)[C@@H](C)[C@H]1CC[C@H]2[C@@H]3CC(=O)[C@H]4C[C@H](O)[C@H](O)C[C@]4(C)[C@H]3CC[C@]12C` [Castasterone], the “concentration of brassinosteroid, rot3-1” value is given as 0.31 ng/g; the “concentration of brassinosteroid, rot3-5” value is on record as 0.50 ng/g; the “concentration of brassinosteroid, Ws-2” value came to 0.28 ng/g.

Take `CC(C)[C@H](C)[C@@H](O)[C@H](O)[C@@H](C)[C@H]1CC[C@H]2[C@@H]3CC(=O)[C@H]4C[C@@H](O)CC[C@]4(C)[C@H]3CC[C@]12C` [Teasterone]: the “concentration of brassinosteroid, rot3-1” value was determined as 0.004 ng/g; the “concentration of brassinosteroid, rot3-5” value stood at 0.02 ng/g; the “concentration of brassinosteroid, Ws-2” value is reported as “— (— in the table shows that the value is less than the limit of detection (0.001 ng/g))”.

For the compound `CC(C)[C@H](C)[C@@H](O)[C@H](O)[C@@H](C)[C@H]1CC[C@H]2[C@@H]3CC(=O)[C@H]4C[C@H](O)CC[C@]4(C)[C@H]3CC[C@]12C` [Typhasterol], the “concentration of brassinosteroid, rot3-1” value is given as 0.38 ng/g; the “concentration of brassinosteroid, rot3-5” value stood at 0.46 ng/g; the “concentration of brassinosteroid, Ws-2” value came to 0.27 ng/g.
